Assay [1] concerns the target CNTD1^FH (C-terminally FLAG-HA tagged CNTD1 short form from the Cntd1^FH knock-in allele) (mouse (endogenous in testis)). The assay is described as follows: co-IP.
The target in assay [2] is CNTD1 short form, yeast two-hybrid bait (mouse). The assay is described as follows: two-hybrid.

Results are given in words; binding and its absence hold for the method and conditions named. For part of these data: In cells and extracts the contact can be indirect. For part of these data: Binding calls can cover weak binding; strength is not graded here.

B1: CDC34 (E2 conjugating enzyme) (enzyme, UniProt Q8CFI2 1-235)
chain: MARPLVPSSQKALLLELKGLQEEPVEGFRVTLVDEGDLYNWEVAIFGPPNTYYEGGYFKARLKFPIDYPYSPPAFRFLTKMWHPNIYETGDVCISILHPPVDDPQSGELPSERWNPTQNVRTILLSVISLLNEPNTFSPANVDASVMYRKWKESKGKDREYTDIIRKQVLGTKVDAERDGVKVPTTLAEYCVKTKAPAPDEGSDLFYDDYYEDGEVEEADSCFGDEEDDSGTEES
Take B1: the binding result in assay [1] was “binds”.

B2: CDK4, yeast two-hybrid prey (enzyme, UniProt P30285 1-303)
chain: MAATRYEPVAEIGVGAYGTVYKARDPHSGHFVALKSVRVPNGGAAGGGLPVSTVREVALLRRLEAFEHPNVVRLMDVCATSRTDRDIKVTLVFEHIDQDLRTYLDKAPPPGLPVETIKDLMRQFLSGLDFLHANCIVHRDLKPENILVTSNGTVKLADFGLARIYSYQMALTPVVVTLWYRAPEVLLQSTYATPVDMWSVGCIFAEMFRRKPLFCGNSEADQLGKIFDLIGLPPEDDWPREVSLPRGAFAPRGPRPVQSVVPEMEESGAQLLLEMLTFNPHKRISAFRALQHSYLHKEESDAE
For the molecule B2, in assay [2], the binding entry was “no binding”.

B3: CDK4 (endogenous, mouse testis) (enzyme, UniProt P30285 1-303)
chain: MAATRYEPVAEIGVGAYGTVYKARDPHSGHFVALKSVRVPNGGAAGGGLPVSTVREVALLRRLEAFEHPNVVRLMDVCATSRTDRDIKVTLVFEHIDQDLRTYLDKAPPPGLPVETIKDLMRQFLSGLDFLHANCIVHRDLKPENILVTSNGTVKLADFGLARIYSYQMALTPVVVTLWYRAPEVLLQSTYATPVDMWSVGCIFAEMFRRKPLFCGNSEADQLGKIFDLIGLPPEDDWPREVSLPRGAFAPRGPRPVQSVVPEMEESGAQLLLEMLTFNPHKRISAFRALQHSYLHKEESDAE
For B3, the binding result in assay [1] was “no binding”.

(Values after publication doi:10.1101/750596.)
